Laboratory results published in PubChem BioAssay AID540303 (National Center for Advancing Translational Sciences (NCATS), 2011).
Screen size: about 330,000 compounds; about 1,000 (0.3%) were called active. Inconclusive means that the source gave no clear call. Such entries were picked first, then a sample of the others. Calls follow the shape of the dose curve; as a rule, active = well fitted inhibition curve with a large enough effect; inconclusive = small, poorly fitted or top-dose-only effect; inactive = no such curve, though single readings can be large or run the other way; tested in mouse RAW 264.7 cells. A potency beside an inconclusive call is a rough fit, not a confirmed value.

Assay: qHTS for Inhibitors of Cell Surface uPA Generation; also: nearly all actives have a fitted effect of over 55% in size
Conditions: cell surface uPA generation assay; series mostly up to 38.3 µM; activity change, negative = inhibition: at the top concentration
Outline: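 Validation set in qHTS format. RAW 264.7 cells were pre-plated overnight and then exposed to compounds (up to 38.3 uM final) for 24 h at 37 C in 5% CO2, followed by a luminescent ATP-Lite measurement.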
% is scaled to controls: 0 for no effect and ±100 for the full control effect; potency is read from the fitted curve at half-maximal effect.

SMILES | Potency | activity change, negative = inhibition
CC(C)CC(=O)Nc1ccc2oc(-c3cccnc3)nc2c1 | inconclusive: 12.6 µM [inhibitor, partial curve, poor fit] | 
O=C1C(=O)N(C/C=C/c2ccccc2)c2ccccc21 | inconclusive: 5.01 µM [inhibitor, single point] | 
CSc1ccc2c(c1)N(CCC1CCCCN1C)c1ccccc1S2 (stereo not drawn) | inconclusive: 11.2 µM [inhibitor, single point] | 
COc1ccc(CCNC(=O)CCCNC(=O)Cn2cnc3sc(C)c(C)c3c2=O)cc1OC |  | inactive: 3.97%
COc1ccc(N(C)S(=O)(=O)c2cccc(C(=O)Nc3ccc(N4CCOCC4)cc3)c2)cc1 | inconclusive: 12.6 µM [inhibitor, single point] | 
COc1ccc(OCc2cc(C(=O)NC(C)Cc3cnccn3)no2)c(Cl)c1 (stereo not drawn) | inconclusive: 1.26 µM [inhibitor, partial curve, poor fit] | 
N/C(=N\OC(=O)c1ccccc1Cl)c1cccnc1 |  | inactive: -8.93%
Cc1c(C(=O)N2CCN(Cc3ccc4c(c3)OCO4)CC2)sc2ncnc(N3CCN(c4ccccc4)CC3)c12 | inconclusive: 1 µM [inhibitor, partial curve, poor fit] | 
CCN(CC)CCNc1ccc(CO)c2sc3ccccc3c(=O)c12 | inconclusive: 2.82 µM [inhibitor, full curve, poor fit] | 
Cc1nc(N2CCCCCC2)c2ccccc2n1 | inconclusive: 11.2 µM [inhibitor, single point] | 
COc1ccc2c(c1)nc(CN1CCN(CCO)CC1)n2C | inconclusive: 2.82 µM [inhibitor, full curve, poor fit] | 
CC(/C=N/NC(=O)c1cccc(F)c1)=C\c1ccccc1 | inconclusive: 10 µM [inhibitor, partial curve, poor fit] | 
Cc1ccc2nc(-c3cccc(SC4CCCCC4)c3)c(NCc3ccccc3)n2c1 | inconclusive: 2.82 µM [inhibitor, full curve, poor fit] | 
COC(=O)CSC1=C(C#N)C(c2ccccc2F)CC(=O)N1 (stereo not drawn) | inconclusive: 7.94 µM [inhibitor, single point] | 
Cn1cnnc1SCC(=O)Nc1ccc2nc(SCc3ccccc3)sc2c1 |  | inactive: -7.5%
Cc1ccc(NCc2nc3ccccc3n2C)c(C)c1 |  | inactive: 0.773%
CCOc1c2ccccc2nn1CCO | inconclusive: 11.2 µM [inhibitor, single point] | 
S=C1Cc2ccccc2N1 | inconclusive: 2.82 µM [inhibitor, partial curve] | 
CCCC[N+](C)(C)CCC(=O)NC(C)(C)CS(=O)(=O)[O-] |  | inactive: 0.712%
COc1ccc(N2CCN(CCCNC(=O)Cn3c(=O)c4cccn4c4cccnc43)CC2)cc1 | inconclusive: 8.91 µM [inhibitor, partial curve, poor fit] | 
O=C(N[C@@H](Cc1ccccc1)C(=O)O)c1ccc(C(F)(F)F)cc1 | inconclusive: 2.82 µM [inhibitor, single point] | 
O=C(Nc1nnc(-c2ccc(Cl)cc2)o1)c1ccccc1Br | inconclusive: 8.91 µM [inhibitor, partial curve, poor fit] | 
Cn1nc(-c2ccccn2)nc2c(=O)n(C)c(=O)nc1-2 | inconclusive: 0.891 µM [inhibitor, full curve, poor fit] | 

SMILES | Potency | activity change, negative = inhibition
O=C(c1cc(Br)ccc1O)N1CCN(S(=O)(=O)Cc2ccccc2)CC1 | inconclusive: 14.1 µM [inhibitor, partial curve, poor fit] | 
O=C(Nc1cccc(C(F)(F)F)c1)C1CC(=O)N(CCc2ccccc2)C1 (stereo not drawn) | inconclusive: 2.82 µM [inhibitor, single point] | 
CCOC(=O)c1oc2nc3c(cc2c1N)COC(C)(C)C3 |  | inactive: -1%
CCN(C[C@H]1N[C@@](CC)(C(=O)OC)[C@H]2C(=O)N(C)C(=O)[C@@H]12)C(=O)Nc1ccc(F)cc1 | inconclusive: 28.2 µM [inhibitor, single point] | 
CCOC(=O)N1CCN(S(=O)(=O)c2ccc(C(=O)NNc3nc4cc(C)cc(C)c4s3)cc2)CC1 | inconclusive: 10 µM [inhibitor, single point] | 
O=C(Nc1ccccc1)Oc1ccc[nH]c1=O |  | inactive: -1.03%
COCCCNC(=O)C[C@H]1C[C@H](C(=O)N(C(C)C)C(C)C)[C@@]2(C)c3[nH]c4ccc(Cl)cc4c3CCN2C1=O | inconclusive: 12.6 µM [inhibitor, single point] | 
O=c1cc2c(nn1Cc1ccc(Cl)cc1Cl)-c1ccccc1CC2 |  | inactive: 0.319%
Cc1cccc2c1NC(=O)C2(O)N1CCCC(C)C1 (stereo not drawn) |  | inactive: 3.73%
CCCc1nnc(NC(=O)c2cccnc2)s1 | inconclusive: 2.82 µM [inhibitor, single point] | 
Cc1nn2c(-c3ccc(S(=O)(=O)N4CCN(CCO)CC4)o3)nnc2c2ccccc12 | inconclusive: 0.794 µM [inhibitor, full curve, poor fit] | 
O=C(NNC(=O)c1cc(S(=O)(=O)N2CCOCC2)c(Cl)cc1Cl)c1ccccc1F |  | inactive: 1.98%
COc1ccc(-c2nc(C#N)c(N3CCCCC3)o2)cc1 |  | inactive: 6.42%
CC(C)n1c(NCc2nc3ccccc3n2C)nc2ccccc21 |  | inactive: 2.06%
COC(=O)c1c(-c2ccc(OC)cc2)oc2ccc(-c3ccc(OC)nc3)cc12 |  | inactive: 15.1%
O=C([O-])c1cc(-c2ccccc2)cc(-c2ccccc2)[n+]1CCc1ccc(Cl)cc1 | inconclusive: 28.2 µM [inhibitor, single point] | 
CCCCCCSc1nnc(-c2cnn(-c3ccccc3)c2-n2cccc2)n1C |  | inactive: 7.33%
Cc1oc(-c2cccc(Cl)c2)nc1CN1CCC(C(=O)N2CCN(c3ccccn3)CC2)CC1 | inconclusive: 5.62 µM [inhibitor, single point] | 
Cc1cccc(NC2=Nc3ccccc3N3C2=Nc2c(c(C)nn2-c2ccccc2)C3c2ccc(O)c(O)c2)c1 (stereo not drawn) |  | inactive: 1.96%
COc1cc(/C=C2\OC(=O)c3c(OC)cccc32)ccc1O |  | inactive: -14%
Cc1ccc(SCc2cc(=O)[nH]c(Nc3nc(C)c4ccccc4n3)n2)cc1 | inconclusive: 12.6 µM [inhibitor, partial curve, poor fit] | 
COc1ccc(/C=N/n2cnc3c([nH]c4ccc(Br)cc43)c2=O)cc1CN1CCOCC1 |  | inactive: -5.06%
Cc1cc(=O)n2nc(N3CCCC3C(=O)Nc3cccc(Cl)c3C)sc2n1 (stereo not drawn) |  | inactive: -7%

SMILES | Potency | activity change, negative = inhibition
CC(C)C(=O)Nc1cccc(COc2cccc(CN(Cc3ccccc3)C(=O)OC(C)(C)C)c2)c1 | inconclusive: 12.6 µM [inhibitor, partial curve] | 
C#CCOCCOCCOCCNc1nc(N2CCN(C(=O)CCCCCCCCCCNC(=O)[C@H]([C@@H](C)CC)n3cc(CCCCN=C(N)N)nn3)CC2)nc(N2CCN(C(=O)CCCCCCCCCCNC(=O)[C@@H]([C@H](C)O)n3cc(C)nn3)CC2)n1 | inconclusive: 11.2 µM [inhibitor, partial curve] | 
COc1ccc(CC(=O)N2N=C(c3ccncc3)CC2(O)C(F)(F)F)cc1 (stereo not drawn) | inconclusive: 5.62 µM [inhibitor, full curve, poor fit] | 
CC(C)c1c(C(=O)N/N=C/C=C/c2ccccc2)nnn1-c1nonc1N |  | inactive: -3.71%
Cc1nnc(NC(=O)CSCc2ccccc2)s1 |  | inactive: -1.33%
CC(C)c1ccc(CNc2c([N+](=O)[O-])c(=O)oc3ccccc23)cc1 | inconclusive: 12.6 µM [inhibitor, single point] | 
Cc1ccnc(Nc2nc(-c3ccc(O)cc3O)cs2)c1 | inconclusive: 1 µM [inhibitor, partial curve, poor fit] | 
O=C(Nc1ccncc1)Nc1ccc(F)c(Cl)c1 | inconclusive: 10 µM [inhibitor, single point] | 
O=C(NC(Nc1ncc(S(=O)(=O)c2ccc([N+](=O)[O-])cc2)s1)(C(F)(F)F)C(F)(F)F)c1ccc(Cl)cc1 |  | inactive: -12.8%
COc1ccc(-c2coc3cc(OC(C)=O)c(OC)cc3c2=O)cc1 | inconclusive: 11.2 µM [inhibitor, single point] | 
CC(=O)c1ccccc1OCC(O)CN1CCN(C(c2ccccc2)c2ccccc2)CC1 (stereo not drawn) |  | inactive: -0.245%
CCOC(=O)c1c(NC(=O)Cc2ccccc2)sc2c1CC(C)(C)NC2(C)C | inconclusive: 11.2 µM [inhibitor, partial curve, poor fit] | 
CCNc1ccc(C(=O)OCC)cc1NC(=O)c1cccc(N(C)C)c1 | inconclusive: 0.282 µM [inhibitor, partial curve, poor fit] | 
COc1ccc(Cc2nnc(NC(=O)c3cc(OC)c(OC)c(OC)c3)s2)cc1 | inconclusive: 28.2 µM [inhibitor, single point] | 
COc1cc(/C=N/NS(=O)(=O)c2ccc(C)cc2)ccc1OCc1cccc(C(=O)O)c1 |  | inactive: 0.645%
CC(C)C[C@H]1CNC(=S)N1CC1CCCN1C[C@H](CC(C)C)N1C[C@H](Cc2ccc(O)cc2)N(CC2CCCCC2)C1=S (stereo partly drawn) | inconclusive: 28.2 µM [inhibitor, single point] | 
O=C(COC(=O)c1ccccc1)Nc1ncc([N+](=O)[O-])s1 |  | inactive: -4.12%
CN1CCC(C(=O)N2CCCC(C(=O)c3ccc4c5c(cccc35)CC4)C2)CC1 (stereo not drawn) | inconclusive: 12.6 µM [inhibitor, single point] | 
CCOC(=O)COc1cccc2c(=O)n(CC(=O)NCc3ccc(F)cc3)ccc12 | active: 0.0562 µM | 
COc1cc(CCNC(=O)CCCn2c(=O)c3cccn3c3cccnc32)cc(OC)c1OC |  | inactive: -2.14%
CC1(C)CC(=O)C(C=Nc2ccc(N)cc2)=C(O)C1 | inconclusive: 10 µM [inhibitor, partial curve] | 
C=CC[C@H](CC(=O)N(CCO)Cc1ccccc1)C(=O)N[C@H](COC(=O)[C@@H](CC=C)Cc1ccc(F)cc1)Cc1ccccc1 | inconclusive: 7.94 µM [inhibitor, partial curve, poor fit] | 

Record cards, from the list above:
C#CCOCCOCCOCCNc1nc(N2CCN(C(=O)CCCCCCCCCCNC(=O)[C@H]([C@@H](C)CC)n3cc(CCCCN=C(N)N)nn3)CC2)nc(N2CCN(C(=O)CCCCCCCCCCNC(=O)[C@@H]([C@H](C)O)n3cc(C)nn3)CC2)n1 is listed as Potency: inconclusive: 11.2 µM [inhibitor, partial curve]
Cc1ccnc(Nc2nc(-c3ccc(O)cc3O)cs2)c1 is listed as Potency: inconclusive: 1 µM [inhibitor, partial curve, poor fit]
